The structures appear in SMILES notation. The hits were mostly taken out for another list; the other results follow. Inconclusive results are not listed. The source made the active and inactive calls. Calls come from the whole dose curve; as a rule, active = well fitted inhibition curve with a large enough effect; inconclusive = small, poorly fitted or top-dose-only effect; inactive = flat fitted curve, though single readings scatter.

The test is described as follows: qHTS for Inhibitors of TGF-b: Cytotox Counterscreen for Cherry Picks. Note: nearly all actives have a fitted effect of over 70% in size. As to conditions: HepG2 CAGA-GFP viability, ATP luminescence, 18 h, cells stimulated with TGF-beta, 500 pg/mL; at 46.1 µM (top of the series). The source says:
TGF-b is a main component in the TGF-b signaling pathway which plays diverse roles in cellular and development pathways. TGF-b is mediated by transcription factors called "Smads". Although the Smad-dependent pathway is the primary canonical TGF-b signaling mode, TGF-b1 can also activate alternative signaling pathways, including those involving MAPK (ERK, JNK and p38). This interaction may mediate or enhance Smad-dependent responses, or can exert Smad-independent effects. The complexity of this signaling cascade allows the TGF-b superfamily to perform unique, overlapping or redundant functions. […] We aim to identify Smad3-small molecule antagonists using a quantitative high throughput screening (qHTS) approach. […]
Suspensions of trypsinized HEPG2 CAGA-GFP cells were dispensed into white, tissue culture-treated, solid 1536-well plates at 5uL/well (1000 cells/well final concentration) in DMEM medium supplemented with 1% FBS. […] Two uL of CellTiter Glo (Promega), a luminescence-based viability reagent, was dispensed, followed by a 10 minute room temperature incubation. The plates were then measured on a PerkinElmer ViewLux plate reader for luminescence (clear filter) using a 5 second exposure. The %Activity was determined from the corrected luminescence values. […] Concentration-response curves were fitted to the signals arising from the resulting luminescence. […]
For orientation: In qHTS, concentration-response curves come from the screen itself.
Turning to `COc1cc2c(c(OC)c1OC)-c1ccc(OC)c(=O)cc1C(N)CC2` (stereo unspecified), the activity, negative = cytotoxicity was inactive: 3.37%.
